In all, about 33,000 sequences were measured (“E-score (-0.5 to 0.5)”: median about -0.015, highest 2% from about 0.3 on). The list shows a part of the results.
Target: T1, Abf1 (UniProt P14164)
T1 sequence: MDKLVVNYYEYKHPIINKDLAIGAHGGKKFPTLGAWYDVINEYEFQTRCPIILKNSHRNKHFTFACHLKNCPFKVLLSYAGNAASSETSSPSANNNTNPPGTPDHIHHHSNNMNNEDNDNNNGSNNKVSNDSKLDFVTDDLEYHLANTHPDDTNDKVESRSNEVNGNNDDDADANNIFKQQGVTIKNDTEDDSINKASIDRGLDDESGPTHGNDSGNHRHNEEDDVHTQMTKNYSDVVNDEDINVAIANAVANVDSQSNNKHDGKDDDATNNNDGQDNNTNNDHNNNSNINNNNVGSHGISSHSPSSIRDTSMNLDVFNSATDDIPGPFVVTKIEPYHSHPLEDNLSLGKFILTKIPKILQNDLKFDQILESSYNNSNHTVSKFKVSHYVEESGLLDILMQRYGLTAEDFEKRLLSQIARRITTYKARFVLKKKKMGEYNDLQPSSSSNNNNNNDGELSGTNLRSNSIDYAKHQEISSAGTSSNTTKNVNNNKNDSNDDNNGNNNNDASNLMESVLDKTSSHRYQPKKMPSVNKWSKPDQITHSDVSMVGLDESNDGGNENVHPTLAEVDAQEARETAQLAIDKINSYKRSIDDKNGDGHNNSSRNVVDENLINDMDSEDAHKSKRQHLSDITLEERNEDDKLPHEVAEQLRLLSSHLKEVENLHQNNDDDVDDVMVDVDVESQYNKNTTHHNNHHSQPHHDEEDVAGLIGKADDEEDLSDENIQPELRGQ
Experiment: PBM E-score (8-mer binding enrichment) (E-score (-0.5 to 0.5)); higher = stronger / more preferred TF binding
Conditions: protein concentration: 200 nM; construct: GST-full length
Protocol: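 Universal 'all 10-mer' protein binding microarrays (Agilent AMADID 015681) probed with GST-tagged S. cerevisiae TFs (full-length or DBD) made by in vitro transcription/translation (PURExpress), about 100-200 nM. Bound TF was detected with fluorescent anti-GST. Each ungapped 8-mer (which stands for itself and its reverse complement) is scored by the PBM enrichment score (E-score), a modified Wilcoxon-Mann-Whitney statistic from -0.5 to +0.5, computed with the Universal PBM Analysis Suite. Scale: above 0.35 generally sequence-specific binding.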

Sequence	PBM E-score
CTGCAAGC	-0.0671
CCTCAATC	0.152
ACATAATA	0.278
GTGGGTGA	0.237
GAAACCGA	-0.166
ACTGATGA	0.19
GAATAGAC	-0.0579
CCAAAAGG	-0.0786
GTTGATCA	0.298
AGCGTGTA	0.119
ACAGTGTG	-0.128
AATCTAGG	0.112
CAAAAGCG	-0.0911
ACAAAACT	0.103
GGAATTCA	-0.0774
CAATGCTG	-0.193
GGAGTACA	-0.046
CTTGGCAA	-0.162
CACGGGGG	-0.147
TGACCTCA	0.112
AATTCAGA	0.0831
CGACAAAC	0.167

Sequence	PBM E-score
CAGATCTG	-0.0978
AATTAAGT	0.0643
GGCACGAA	0.103
ACTGGAGC	-0.289
CGTCGTAC	0.399
ATCTCATG	0.081
CCTTGTCG	0.0374
GGGACATA	-0.00523
AGGGCTCC	-0.336
CGAAAGCG	0.0589
AGTTGGTA	0.15
GCGACCCC	-0.171
ACTTGGCG	-0.134
AACTCAAG	-0.0847
ACCAGAGC	-0.162
AAGAATAG	0.0587
AATGGAAC	0.0939
AAGGAGCT	-0.221
CTACATGC	0.186
GTCGTATA	0.402
AATGCCAC	-0.0313
ATCTGGCA	0.0875

Sequence	PBM E-score
CCAGACGA	0.143
ACGGCAAG	0.245
ACTTGGAA	-0.132
AAACTTCG	-0.00445
AACAGACG	-0.043
GCAAAGAC	-0.0514
ACAATAGT	0.0954
AAGAATAA	-0.0188
ACATCGGC	-0.073
GCATTCAC	0.133
ATGACAAA	0.338
CGAGCTAG	0.0588
CGTTTAAC	0.254
ACTAAACT	0.0386
AATTGGCT	-0.0373
ACCCGTTC	0.188
AAGCCACC	-0.214
CCTGAGAG	-0.352
CCCAACGG	-0.0471
AACCGCAT	0.0846
ATCGCGAC	0.206
AGTTCGCA	0.0692

A different layout for part of the listing above:
Sequence | PBM E-score
ACCCGTTC | 0.188
AAGCCACC | -0.214

Next part

Sequence	PBM E-score
CGAAGGCG	-0.0596
GTGTCATA	0.119
ATCTAACC	-0.0913
AGAGGACA	-0.132
CGAAAGGC	0.106
GCGGCAGA	-0.0956
GACAGGCC	-0.0723
CTACTGTA	-0.201
TGGTCTAA	-0.185
CCCTACCA	0.0127
AAAATTGA	0.0528
AGTTTGCC	-0.0674
ATAGTTAA	0.147
CGCCGGTC	-0.16
CCGAGCCC	-0.301
CGAAGCGC	-0.101
TACTCTCA	-0.144
GACAGCTC	-0.0862
GAAAGGAC	0.0143
GTTGAGCA	-0.0847

A few values from the results shown.
PBM E-score with CGAAGCGC reads -0.101
PBM E-score with ACCCGTTC reads 0.188

Source: the supplement of paper PMC3334620
